Results are given in words; binding and its absence hold for the method and conditions named. For some of these results: Binding seen in cells or lysates may run through a third protein. Some entries that bind do so weakly or less than the wild type. Tags and fused reporters may be left off the sequences shown.
Key:
HMGB1-GST (Abnova) = HMGB1-GST (Abnova) (UniProt P09429); experiment: in vitro pull-down on cobalt resin, coomassie-stained SDS-PAGE
[1] = biological target: T1, recombinant GST construct encoding the HMGB1 C-terminus (UniProt P09429); experiment: in vitro GST pull down
T1 sequence: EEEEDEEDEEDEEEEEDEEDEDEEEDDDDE

[2] = biological target: recombinant GST construct encoding full-length HMGB1 (UniProt P09429); experiment: in vitro GST pull down, coomassie SDS-PAGE and western blot for GST or His
[3] = biological target: T1, recombinant GST construct encoding the HMGB1 C-terminus; experiment: as above
[4] = biological target: HMGB1 (endogenous, in A549 cells) (UniProt P09429); experiment: HA-bead immunoprecipitation from induced A549 cells, western blot
[5] = biological target: HMGB1 (endogenous, in A549 cells) (UniProt P09429); experiment: co-immunoprecipitation from A549 cells, western blot
[6] = biological target: HMGB1 (endogenous, in A549 cells) (UniProt P09429); experiment: GFP immunoprecipitation from transfected A549 cells

B1: recombinant protein VII-His (protein)
chain: AKKRSDQHPVRVRGHYRAPWGAHKRGRTGRTTVDDAIDAVVEEARNYTPTPPPVSTVDAAIQTVVRGARRYAKMKRRRRRVARRHRRRPGTAAQRAAAALLNRARRTGRRAAMRAARRLAAGIVTVPPRSRRRAAAAAAAAISAMTQGRRGNVYWVRDSVSGLRVPVRTRPPRN
In the case of B1, the binding (HMGB1-GST (Abnova)) is reported as “binds”, the binding [1] is reported as “binds” and the binding [2] is reported as “binds”. The binding [3] was “binds”.

B2: protein VII-HA from human adenovirus serotype 5 (protein)
chain: AKKRSDQHPVRVRGHYRAPWGAHKRGRTGRTTVDDAIDAVVEEARNYTPTPPPVSTVDAAIQTVVRGARRYAKMKRRRRRVARRHRRRPGTAAQRAAAALLNRARRTGRRAAMRAARRLAAGIVTVPPRSRRRAAAAAAAAISAMTQGRRGNVYWVRDSVSGLRVPVRTRPPRN
In the case of B2, the binding [4] is reported as “binds” and the binding [5] is reported as “binds”.

B3: full-length Ad5 protein VII tagged with GFP (protein)
chain: AKKRSDQHPVRVRGHYRAPWGAHKRGRTGRTTVDDAIDAVVEEARNYTPTPPPVSTVDAAIQTVVRGARRYAKMKRRRRRVARRHRRRPGTAAQRAAAALLNRARRTGRRAAMRAARRLAAGIVTVPPRSRRRAAAAAAAAISAMTQGRRGNVYWVRDSVSGLRVPVRTRPPRN
In the case of B3, the binding [6] is reported as “binds”.
